{"source": "PubChem BioAssay AID1259254 (NCATS, 2017)", "test": "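Gene knock-downs that lead to re-replication, shown by excess G2 DNA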 (primary screen)", "cell system": "human HCT116 colorectal cancer cells", "knock-down reagent": "single siRNA against human genes", "timing": "3 days", "measured": "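Nuclei stained with Hoechst and imaged; cell-cycle phase assigned by DNA content; G2 share scaled per plate, non-targeting siRNA 0%, GMNN siRNA 100%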", "reading the numbers": "G2 robust z-score and G2 cells, % of GMNN control: higher = more G2 cells, more excess DNA replication", "hit rule": "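An siRNA counts as active if its G2 robust z-score lies at least 5 MADs above the screen median; here such calls match roughly 38% of GMNN control or more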", "note": "In all, the deposit lists about 59,000 reagents; this is a part drawn at random. About 1,550 of them (2.6%) were called active. 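G2 share is only a proxy for re-replication; each gene was hit by three separate siRNAs, and active genes were retested.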 A number with no mark means an inactive call. The numbers tell different reagents against one gene apart. Not all columns of the deposit are shown. Not given: the amount of reagent."}
{"gene knocked down":"ZNF699","siRNA no.":1,"G2 robust z-score":-0.533,"G2 cells, % of GMNN control":-0.781}
{"gene knocked down":"ZNF699","siRNA no.":2,"G2 robust z-score":-0.41,"G2 cells, % of GMNN control":0.0851}
{"gene knocked down":"ZNF699","siRNA no.":3,"G2 robust z-score":-0.597,"G2 cells, % of GMNN control":-1.23}
{"gene knocked down":"RBBP4","siRNA no.":1,"G2 robust z-score":2.65,"G2 cells, % of GMNN control":21.6}
{"gene knocked down":"RBBP4","siRNA no.":2,"G2 robust z-score":1.87,"G2 cells, % of GMNN control":16.1}
{"gene knocked down":"RBBP4","siRNA no.":3,"G2 robust z-score":-0.699,"G2 cells, % of GMNN control":-1.95}
{"gene knocked down":"ZNF780B","siRNA no.":1,"G2 robust z-score":2.74,"G2 cells, % of GMNN control":22.2}
{"gene knocked down":"ZNF780B","siRNA no.":2,"G2 robust z-score":-0.656,"G2 cells, % of GMNN control":-1.65}
{"gene knocked down":"ZNF780B","siRNA no.":3,"G2 robust z-score":1.55,"G2 cells, % of GMNN control":13.8}

The list goes on; the last 3 above are carried over.
{"gene knocked down":"ZNF780B","siRNA no.":1,"G2 robust z-score":2.74,"G2 cells, % of GMNN control":22.2}
{"gene knocked down":"ZNF780B","siRNA no.":2,"G2 robust z-score":-0.656,"G2 cells, % of GMNN control":-1.65}
{"gene knocked down":"ZNF780B","siRNA no.":3,"G2 robust z-score":1.55,"G2 cells, % of GMNN control":13.8}
{"gene knocked down":"PIKFYVE","siRNA no.":1,"G2 robust z-score":-0.555,"G2 cells, % of GMNN control":-0.935}
{"gene knocked down":"PIKFYVE","siRNA no.":2,"G2 robust z-score":-0.653,"G2 cells, % of GMNN control":-1.63}
{"gene knocked down":"PIKFYVE","siRNA no.":3,"G2 robust z-score":0.473,"G2 cells, % of GMNN control":6.3}
{"gene knocked down":"OR3A3","siRNA no.":1,"G2 robust z-score":-0.404,"G2 cells, % of GMNN control":0.123}
{"gene knocked down":"OR3A3","siRNA no.":2,"G2 robust z-score":-0.274,"G2 cells, % of GMNN control":1.04}
{"gene knocked down":"OR3A3","siRNA no.":3,"G2 robust z-score":-0.128,"G2 cells, % of GMNN control":2.07}
{"gene knocked down":"FBXO11","siRNA no.":1,"G2 robust z-score":0.948,"G2 cells, % of GMNN control":9.64}
{"gene knocked down":"FBXO11","siRNA no.":2,"G2 robust z-score":-1.17,"G2 cells, % of GMNN control":-5.26}
{"gene knocked down":"FBXO11","siRNA no.":3,"G2 robust z-score":0.299,"G2 cells, % of GMNN control":5.07}
{"gene knocked down":"GOT2","siRNA no.":1,"G2 robust z-score":2.85,"G2 cells, % of GMNN control":23}
{"gene knocked down":"GOT2","siRNA no.":2,"G2 robust z-score":-1.08,"G2 cells, % of GMNN control":-4.66}
{"gene knocked down":"GOT2","siRNA no.":3,"G2 robust z-score":0.608,"G2 cells, % of GMNN control":7.25}
{"gene knocked down":"SAMD11","siRNA no.":1,"G2 robust z-score":-0.752,"G2 cells, % of GMNN control":-2.32}
{"gene knocked down":"SAMD11","siRNA no.":2,"G2 robust z-score":0.81,"G2 cells, % of GMNN control":8.67}
{"gene knocked down":"SAMD11","siRNA no.":3,"G2 robust z-score":-0.985,"G2 cells, % of GMNN control":-3.96}
